Patent publication US8536114B2, “Macrocycles” (Scynexis, Inc., priority 2008, dated 2013)
Some entries share one result that the patent states for a list of compounds. At least one structure is not confirmed: it was looked up by name or label, or the drawing left a doubt.

Tested on: IL-2
Experiment: T Cell stimulation (IL-2) in Jurkat cells with anti-CD3 and anti-CD28 co-stimulation
Assay type: cell-based
Conditions: supernatant after 6 hours
Method: Compounds of formula (I) were tested for their T Cell stimulation (IL-2) in Jurkat cells with anti-CD3 and anti-CD28 co-stimulation. […] All compounds to be tested were dissolved in dimethyl sulfoxide. Cytotoxicity was evaluated with parallel Alamar Blue plates. Jurkat cells were seeded at 2×10^5 cells per well in 190 μL growth media in a 96-well plate. Cells were cultured in RPMI 1640 medium, 10% fetal bovine serum, and L-Glutamine with incubation at 37° C. with 5% carbon dioxide. After 1 hour of incubation the cells were stimulated with immobilized anti-CD3 (0.4 μg/well), anti-CD28 soluble (2 μg/mL). After 6 hours the sample supernatants were harvested and stored at −80° C. 50 μL samples of supernatant were tested for IL-2 using a Luminex® 1-plex assay.

Row | Compound | EC50 [µM]
1 | CC=CCC(C)C(O)C1C(=O)NC(CC)C(=O)N(C)CC(=O)N(C)C(CC(C)(C)OC(=O)CC)C(=O)NC(C(C)C)C(=O)N(C)C(CC(C)C)C(=O)NC(C)C(=O)NC(C)C(=O)N(C)C(CC(C)C)C(=O)N(C)C(CC(C)C)C(=O)N(C)C(C(C)C)C(=O)N1C (stereo not shown) [Compound G, [4′-propionyloxy-N-methylleucine]^4cyclosporine A] | < 0.1
2 | CC=CCC(C)C(O)C1C(=O)NC(CC)C(=O)N(C)CC(=O)N(C)C(CC(C)(C)OC(=O)CCC)C(=O)NC(C(C)C)C(=O)N(C)C(CC(C)C)C(=O)NC(C)C(=O)NC(C)C(=O)N(C)C(CC(C)C)C(=O)N(C)C(CC(C)C)C(=O)N(C)C(C(C)C)C(=O)N1C (stereo not shown) [Compound H, [4′-butyryloxy-N-methylleucine]^4cyclosporine A] | < 0.1
3 | [4′-N,N′-diethylaminoacetoxy-N-methylleucine]^4cyclosporine A | > 10
4 | [4′-N,N′-dimethylaminoacetoxy-N-methylleucine]^4cyclosporine A | > 10
